The data set can be described thus: Serum lipids and calcemia in rabbit model of aortic valve stenosis. It is filed as in vivo, New-Zealand White rabbits. The following applies: treated group, at the end of treatment. The protocol: The animals then returned to a standard diet (without vitamin D2) to mimic cholesterol lowering and were randomly assigned to receive either saline (control group, n=8) or the ApoA-1 mimetic peptide (treated group, n=7). Rabbits were given injections through the marginal ear vein of saline or of the ApoA-1 mimetic peptide (25 mg/kg) complexed with phospholipids (Compound A), 3 times per week for 2 weeks. Echocardiograms were performed serially (see Echocardiography Methods) every 3 to 4 days throughout the randomized treatment period. Two days after their last infusion, the animals underwent a final echocardiogram and were sacrificed, and the aortic valves were harvested for histological analyses. Blood samples were obtained through the ear artery at baseline, prior to treatment and before sacrifice. Total cholesterol, HDL cholesterol, triglycerides and calcium levels were measured with an automated filter photometer system (Dimension RxL Max, Dade Behring, Ill.).
Data are presented as mean±standard deviation. For the “pre-treatment” period, repeated measures analysis of variance (ANOVA) models were used to study the echocardiographic and serum measurements across time and between groups (treated vs. control groups). […] Relationships between histomorphometry and echocardiographic variables were evaluated using Pearson correlation coefficient. […]

In the case of “H-Pro-Val-Leu-Asp-Leu-Phe-Arg-Glu-Leu-Leu-Asn-Glu-Leu-Leu-Glu-Ala-Leu-Lys-Gln-Lys-Leu-Lys-OH [ApoA-1 mimetic peptide]”, the calcemia was 3.22 ± 0.12 mmol/L.

The values are drawn from US8163699B2, “Method for the treatment of valvular disease” (Montreal Heart Institute, priority 2006, dated 2012).
